T/C and survivor count data for eight compounds are collected here from PubChem BioAssay AID248 (DTP/NCI, 2004).

The list shows only some results of the screen, not a fair sample: it gathers some chemical classes. Other doses and runs of a compound may be missing. T/C is the treated group as % of the vehicle group. Some entries give survivors of the animals treated and no T/C: the source files T/C as zero there, which appears to mark a toxic dose or a test without result, not a measured value. Counts of survivors are from the toxicity check (mostly the fifth day) where no day follows; animals may have died later. Schedules are NCI's codes, read here as Q, the interval in days (D) or hours (H), X, the number of doses. For survival time, the PubChem record calls one and a half times the control and up active, and a quarter to a half above the control has no call in these data; cut-offs in other NCI protocols can differ. Some doses were run more than once; the values are given in rising order. Some schedules carry Z or #; the key to these is not given. Additions like (4×) stand for listed records that agree. Some T/C values carry the count of animals alive at the toxicity check (mostly the fifth day); without a count or a note in brackets, all were alive then. Some complexes appear as separate parts, the way the source draws them; their charges need not add up.

The test concerns L1210 leukemia ip in BDF1 mice, survival T/C. The test can be described thus: NCI In Vivo Anticancer Drug Screen. Data for tumor model L1210 Leukemia (intraperitoneal) in B6D2F1 (BDF1) mice. The note with it: T/C endpoint: mean survival time, higher T/C = longer survival.
[1] abbreviates: dose: 100.0 mg/kg/injection, schedule: Q04DX003 (ip), vehicle: saline with Tween-80.
The mark [2] stands for this setting: dose: 200.0 mg/kg/injection, schedule: Q04DX003 (ip), vehicle: saline with Tween-80.
[3] abbreviates: dose: 400.0 mg/kg/injection, schedule: Q04DX003 (ip), vehicle: saline with Tween-80.
Setting [4] is: dose: 100.0 mg/kg/injection, schedule: Q01DX001 (ip), vehicle: saline.
[5] abbreviates: dose: 100.0 mg/kg/injection, schedule: Q04DX003 (ip), vehicle: saline.
[6] abbreviates: dose: 200.0 mg/kg/injection, schedule: Q01DX001 (ip), vehicle: saline.
Setting [7] is: dose: 200.0 mg/kg/injection, schedule: Q04DX003 (ip), vehicle: saline.
Where [8] appears, read: dose: 400.0 mg/kg/injection, schedule: Q01DX001 (ip), vehicle: saline.
Where [9] appears, read: dose: 400.0 mg/kg/injection, schedule: Q04DX003 (ip), vehicle: saline.

Take `O=[N+]([O-])c1cc2nc(Cl)[nH]c2cc1[N+](=O)[O-]`: the T/C by setting is: (dose: 5.0 mg/kg/injection, schedule: Q01DX001 (ip), vehicle: carboxymethylcellulose (CMC)) 102 % of control; (dose: 10.0 mg/kg/injection, schedule: Q01DX001 (ip), vehicle: carboxymethylcellulose (CMC)) 104 % of control; (dose: 20.0 mg/kg/injection, schedule: Q01DX001 (ip), vehicle: carboxymethylcellulose (CMC)) 96 % of control; (dose: 40.0 mg/kg/injection, schedule: Q01DX001 (ip), vehicle: carboxymethylcellulose (CMC)) 93 % of control; (dose: 80.0 mg/kg/injection, schedule: Q01DX001 (ip), vehicle: carboxymethylcellulose (CMC)) 107 % of control; (dose: 100.0 mg/kg/injection, schedule: Q01DX001 (ip), vehicle: carboxymethylcellulose (CMC)) 102 % of control [3 of 4 alive]. Further, the survivor count runs as follows: (dose: 200.0 mg/kg/injection, schedule: Q01DX001 (ip), vehicle: carboxymethylcellulose (CMC)) 0 of 4; (dose: 400.0 mg/kg/injection, schedule: Q01DX001 (ip), vehicle: carboxymethylcellulose (CMC)) 0 of 4.
As to `CCN(CC)P1OCCO1`, the T/C is 96 % of control under setting [1], 97 % of control under setting [2] and 100 % of control under setting [3].
Take `ClCCNCCCCCNCCCl`: the T/C runs as follows: (dose: 40.0 mg/kg/injection, schedule: Q01DX Z (ip), vehicle: saline) 112 % of control (2×); (dose: 50.0 mg/kg/injection, schedule: Q01DX001 (ip), vehicle: saline) 95 % of control; (dose: 65.0 mg/kg/injection, schedule: Q01DX Z (ip), vehicle: saline) 118 and 120 % of control; under setting [4], 120 % of control; (dose: 100.0 mg/kg/injection, schedule: Q01DX Z (ip), vehicle: saline) 136, 142, 143 % of control; under setting [5], 124 % of control. The T/C (dose: 132.0 mg/kg/injection, schedule: Q04DX003 (ip), vehicle: saline) was 115 and 139 % of control; the T/C (dose: 150.0 mg/kg/injection, schedule: Q01DX Z (ip), vehicle: saline) is listed as 107, 112, 148 % of control; the T/C (dose: 177.0 mg/kg/injection, schedule: Q01DX001 (ip), vehicle: saline) was 119 % of control; the T/C under setting [6] is 129 % of control; the T/C under setting [7] is 104, 137, 146 % of control; the T/C (dose: 266.0 mg/kg/injection, schedule: Q01DX001 (ip), vehicle: saline) is 125 % of control. Further, the T/C reads like this: (dose: 300.0 mg/kg/injection, schedule: Q04DX003 (ip), vehicle: saline) 139 and 168 % of control; under setting [8], 141 and 145 % of control; under setting [9], 138 % of control.
For the compound `CCN(CC)CCOC(=O)C(O)(c1ccccc1)c1ccc(C)cc1` (centres undefined), the T/C runs as follows: (dose: 9.38 mg/kg/injection, schedule: Q01DX001 (ip), vehicle: other) 102 % of control; (dose: 18.75 mg/kg/injection, schedule: Q01DX001 (ip), vehicle: other) 100 % of control. The survivor count reads like this: (dose: 37.5 mg/kg/injection, schedule: Q01DX001 (ip), vehicle: other) 2 of 6; (dose: 75.0 mg/kg/injection, schedule: Q01DX001 (ip), vehicle: other) 0 of 6; (dose: 150.0 mg/kg/injection, schedule: Q01DX001 (ip), vehicle: other) 0 of 6; (dose: 300.0 mg/kg/injection, schedule: Q01DX001 (ip), vehicle: other) 0 of 6.
As for `CCOP(=O)(OCC)C1CN1` (centres undefined), the T/C reads like this: under setting [5], 110 % of control; under setting [7], 108 % of control; under setting [9], 110 % of control.
With `NC(=O)c1cc(Cl)cc(Cl)c1N1CC[N+](CCCl)=N1.NC(=O)c1cc(Cl)cc(Cl)c1N=NN(CCCl)CCCl`, the T/C under setting [1] is 97 % of control, the T/C under setting [2] was 100 % of control and the T/C under setting [3] is 106 % of control.
Turning to `O=P(NCCCl)(NCCCl)Nc1ncccn1`, the T/C reads like this: (dose: 100.0 mg/kg/injection, schedule: Q01DX001 (sc), vehicle: carboxymethylcellulose (CMC)) 105 % of control; (dose: 200.0 mg/kg/injection, schedule: Q01DX001 (sc), vehicle: carboxymethylcellulose (CMC)) 103 % of control; (dose: 400.0 mg/kg/injection, schedule: Q01DX001 (sc), vehicle: carboxymethylcellulose (CMC)) 103 % of control.
`CCOP1OC(C)C(C)O1` (centres undefined): the T/C was 102 % of control under setting [4], 115 % of control under setting [6] and 100 % of control [3 of 4 alive] under setting [8].
